Measured values published in paper PMC10313376.
These are yes or no findings as the source states them, for the method shown. In cells and extracts the contact can be indirect. A result given as binding can be weak or reduced; the word gives no strength.

Amino acid sequences for entries named in this document (tags omitted). Residues count along the entry.
UniProt O88572, residues 20-1613: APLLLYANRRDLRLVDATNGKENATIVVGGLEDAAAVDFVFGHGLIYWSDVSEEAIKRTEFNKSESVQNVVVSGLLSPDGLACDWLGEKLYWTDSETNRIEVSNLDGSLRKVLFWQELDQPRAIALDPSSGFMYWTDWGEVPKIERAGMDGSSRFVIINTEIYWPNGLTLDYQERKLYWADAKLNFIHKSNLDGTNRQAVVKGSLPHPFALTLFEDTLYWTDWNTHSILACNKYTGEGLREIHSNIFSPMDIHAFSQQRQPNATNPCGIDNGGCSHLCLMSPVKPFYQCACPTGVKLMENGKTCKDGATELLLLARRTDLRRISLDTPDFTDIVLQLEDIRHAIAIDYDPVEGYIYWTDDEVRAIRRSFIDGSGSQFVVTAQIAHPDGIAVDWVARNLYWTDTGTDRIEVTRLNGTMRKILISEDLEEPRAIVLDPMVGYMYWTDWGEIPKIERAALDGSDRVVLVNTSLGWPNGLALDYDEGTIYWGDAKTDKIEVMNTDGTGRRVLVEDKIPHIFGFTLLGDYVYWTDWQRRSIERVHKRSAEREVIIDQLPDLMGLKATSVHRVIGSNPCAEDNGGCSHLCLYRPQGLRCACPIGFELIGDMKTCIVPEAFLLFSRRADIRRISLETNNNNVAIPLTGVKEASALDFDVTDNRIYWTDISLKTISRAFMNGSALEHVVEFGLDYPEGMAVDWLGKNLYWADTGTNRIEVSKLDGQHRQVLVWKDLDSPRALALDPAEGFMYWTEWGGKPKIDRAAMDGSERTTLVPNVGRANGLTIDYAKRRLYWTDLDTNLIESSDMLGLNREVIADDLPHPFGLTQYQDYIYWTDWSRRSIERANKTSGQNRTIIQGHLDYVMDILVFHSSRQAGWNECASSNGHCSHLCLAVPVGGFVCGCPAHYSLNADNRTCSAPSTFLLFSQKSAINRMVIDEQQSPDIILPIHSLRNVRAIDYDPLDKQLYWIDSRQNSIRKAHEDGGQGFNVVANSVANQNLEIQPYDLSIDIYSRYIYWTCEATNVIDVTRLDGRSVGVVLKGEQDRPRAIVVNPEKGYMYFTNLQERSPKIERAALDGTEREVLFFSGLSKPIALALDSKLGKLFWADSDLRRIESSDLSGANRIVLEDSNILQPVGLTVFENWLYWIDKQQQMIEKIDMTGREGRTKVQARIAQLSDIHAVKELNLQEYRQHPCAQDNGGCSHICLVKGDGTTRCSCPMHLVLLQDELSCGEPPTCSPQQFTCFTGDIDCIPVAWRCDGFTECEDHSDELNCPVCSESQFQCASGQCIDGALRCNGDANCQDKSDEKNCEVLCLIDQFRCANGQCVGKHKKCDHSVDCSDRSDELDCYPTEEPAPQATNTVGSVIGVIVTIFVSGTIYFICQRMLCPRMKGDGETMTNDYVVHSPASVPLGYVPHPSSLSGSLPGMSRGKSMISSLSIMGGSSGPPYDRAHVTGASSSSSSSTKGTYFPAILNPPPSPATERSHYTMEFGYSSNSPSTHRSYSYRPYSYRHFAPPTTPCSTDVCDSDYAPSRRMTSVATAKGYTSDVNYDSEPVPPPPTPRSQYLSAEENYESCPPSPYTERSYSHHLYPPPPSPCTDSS

Target: FLAG-tagged mouse LRP6 (mouse) (UniProt O88572)
Assay: co-IP; FLAG IP (ANTI-FLAG M2 Affinity Gel, 2 mg total protein, elution with FLAG peptide) from 293T cells cotransfected with FLAG-mLRP6 and mSELENOP constructs, blot for LRP6 and SELENOP or V5

Row | Substance | binding
1 | V5-tagged mouse SELENOP Δ258-267 (from UniProt P70274) | binds
2 | V5-tagged mouse SELENOP Δ268-277 (from UniProt P70274) | binds
3 | V5-tagged mouse SELENOP Δ278-287 (from UniProt P70274) | binds
4 | V5-tagged mouse SELENOP Δ288-299 (from UniProt P70274) | binds
